{"source": "paper PMC6609874", "about": "“MeABL5, an ABA Insensitive 5-Like Basic Leucine Zipper Transcription Factor, Positively Regulates MeCWINV3 in Cassava (Manihot esculenta Crantz)”", "target": "T1, MeABL5 (Manihot esculenta Crantz) (UniProt A0A411G151)", "T1 sequence": "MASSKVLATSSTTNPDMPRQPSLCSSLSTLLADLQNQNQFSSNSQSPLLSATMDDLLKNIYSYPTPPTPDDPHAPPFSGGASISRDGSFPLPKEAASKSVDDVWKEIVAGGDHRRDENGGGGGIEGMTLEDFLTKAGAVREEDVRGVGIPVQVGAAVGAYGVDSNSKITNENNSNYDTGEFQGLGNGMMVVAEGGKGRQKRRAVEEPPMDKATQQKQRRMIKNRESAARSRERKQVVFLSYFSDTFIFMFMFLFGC", "experiment": "EMSA", "settings": "100-250 ng protein, 500 ng DNA, EMSA kit (Invitrogen), room temperature 30 min, 0-250 ng protein, PAGE with SYBR Green/SYPRO Ruby stain, salt and pH not stated, recombinant protein, label: none (SYBR Green stain)", "note": "Where a protein sequence is shown, tags need not be part of it."}
{"sequence": "ATCATTCTCACAGGACATCAAATTTATATTAGACTACCTTATTTTAATTTCATTACCTAAATAATTAATATTAATAATTAAACTTTAGTGTTTGGAATAATTAGCATTTTGGATTTTATCACTTATTTTCTTTATGTGAGAATGAGATGGATACCTTTCTTGCTATAAATTCTAAATATCCCTTTTGACTTTGTTAATTTATTTTATAAAAAAAATTTAATTACAAATTATTATTATGTATATTTAAATTATACATATTAAAAATAAATAATTTTTAATAATATCTTTTAATAAAATTAAATATTTTTTAAATCAAAATTAAATCTTAATTAATAAAATAAAGTTTTAATATATATTCAATTTACTATGCTGTTCCTTACGCTAAAATGAGCGGCATGCAATCGTTGACATGTGAGTATTTGACGTATCCACGTGGGAAAGGGAAGAAAAACAACATTGAATAACCTAATTTTTGTCTAAATTCAATTTACATAAAAAATTCAAAATATAAATAAGAGTGTTTTATGTGATTTTAATTATATTAATAAAATCAAATTTCTTTTTTTATTTTCATATTTAATTATTTTAATAACATTATATTTAGAAATATATAGAAATTGGGTTCACATGGTGAAGCTGTAAGACAACTAGCATGGAAATAATTAAATAATTGTTTTTTTTTTTTTCAAAATCCACCCAAAAATCATTAATTGGTTGATTTACTGCCTTTGATAATTTGTCCCCTCTGGCCTATCAGCTGCTGTTAGATAAAATAAAATATTCTATATATAAAATTTTTTTAAAAATATATTATTATTCCAGAAATAAAGATATTTTTATATTACCTTAAACACATTGACTTTGACTTCAAAAACCAGTTTTCTTGGGTGCTGCTGTAACTTAGAAAGTGAAATTGAAATAAATAAATAGGATGGTTACCTGATTTTGAGAACTTTTACTTCATTTTTGTTTTTCATATTTGAAAAAAATGAGAAAAACTAGAAAAAATAATATTCCATGTAGACTAATCTTTTCATGCATCCACCAATTTTCTCCATTAAGATAAAAATTTCTACTCTCTGCCACCAAACTCCTCTATATAAGTTCCTTGGGGAGTTGCAGACATGTCTCACTTCTCACCTTATTCAATCAAAGGAGCT (double strand) [MeCWINV3 promoter 1,160 bp]", "values": [{"measurement": "binding result", "result": "binds"}]}
